Data reported in paper PMC4901263.
Results are given in words; binding and its absence hold for the method and conditions named. For part of these data: In cells and extracts the contact can be indirect. Some entries that bind do so weakly or less than the wild type. Sequences can lack the tags named with a protein.

Legend:
[1] = molecular target: NS5A from genotype 1b (HCV-Con1), two-hybrid fusion (hepatitis C virus Con1 (genotype 1b)) (UniProt Q9WMX2); assay: two-hybrid; Yeast mating: AH109 with NS5A constructs in pGBKT7, Y187 with CIDEB constructs in pGADT7; growth on SD/-Trp/-Leu/-His/-Ade and SD/-Trp/-Leu/-His with 2 mM 3-AT, 30 °C, 5 to 8 d
[2] = molecular target: Flag-NS5A (from HCV-Con1, genotype 1b) (hepatitis C virus Con1 (genotype 1b)) (UniProt Q9WMX2); assay: co-IP; HEK293T cells co-transfected with tagged CIDEB and a tagged HCV protein; lysis buffer 50 mM Tris pH 7.4, 150 mM NaCl, 0.5% NP-40, 1.0 mM EDTA; IP with anti-Flag, anti-HA or anti-GFP antibody and protein A/G beads at 4 °C; blot with anti-HA, anti-Flag or anti-NS3

Binder | binding [1] | binding [2]
CIDEB in pGADT7 (activation-domain fusion) (protein, UniProt Q9UHD4 1-219) MEYLSALNPSDLLRSVSNISSEFGRRVWTSAPPPQRPFRVCDHKRTIRKGLTAATRQELLAKALETLLLNGVLTLVLEEDGTAVDSEDFFQLLEDDTCLMVLQSGQSWSPTRSGVLSYGLGRERPKHSKDIARFTFDVYKQNPRDLFGSLNVKATFYGLYSMSCDFQGLGPKKVLRELLRWTSTLLQGLGHMLLGISSTLRHAVEGAEQWQQKGRLHSY | binds | 
HA-CIDEB (Homo sapiens), cell-death-inducing DFFA-like effector B (protein, UniProt Q9UHD4 1-219) MEYLSALNPSDLLRSVSNISSEFGRRVWTSAPPPQRPFRVCDHKRTIRKGLTAATRQELLAKALETLLLNGVLTLVLEEDGTAVDSEDFFQLLEDDTCLMVLQSGQSWSPTRSGVLSYGLGRERPKHSKDIARFTFDVYKQNPRDLFGSLNVKATFYGLYSMSCDFQGLGPKKVLRELLRWTSTLLQGLGHMLLGISSTLRHAVEGAEQWQQKGRLHSY |  | binds
HA-CIDEB (Mus musculus) (protein, UniProt O70303 1-219) MEYLSAFNPNGLLRSVSTVSSELSRRVWNSAPPPQRPFRVCDHKRTVRKGLTAASLQELLDKVLETLLLRGVLTLVLEEDGTAVDSEDFFQLLEDDTCLMVLEQGQSWSPKSGMLSYGLGREKPKHSKDIARITFDVYKQNPRDLFGSLNVKATFYGLYSMSCDFQGVGPKRVLRELLRWTSSLLQGLGHMLLGISSTLRHVVEGADRWQWHGQRHLHS |  | no binding
